# The other results are listed elsewhere or left out.
# B1: SP15308F-bth-333-19-333 (Bacteroides thetaiotaomicron) (protein)
# chain: SCNNEWESEQYVQMVSFKAPVNAQGVTPIYIRYKPEGKVTYQLPLIVSGSTMNSKDLNVHVGLDLDTLDVLNVEHFGSRKELFFKPLENKYYEFPETVQIPAGECTSLLPIDFALKDLDQVDKWVLPLAIQSNDPSHNYQANPRKFYRRAMLRISPFNDYSGQYSATAYKVYFKGNEKEAIVPEYHTSYVIDDKTIFFYAGLIDIDRLDRKYYKIKFEFTEEKIDLQTRKLKISSDNEDINLVVKGQPSYTVEEEMDATRPYLKHIYVTINNLEYEFTDYTSVPGYPLEYVVKGSLTMERKINTQIPDEDQAIEW
# What was measured:
# Experiment in all cases: glycan array binding signal (z-score within array); higher = stronger binding
# Conditions in all cases: glycan notation: IUPAC condensed, linker removed
# [1] = target: Gal(b1-4)GlcNAc(b1-3)Gal(b1-4)GlcNAc(b1-2)[Gal(b1-4)GlcNAc(b1-3)Gal(b1-4)GlcNAc(b1-6)]Man(a1-6)[Gal(b1-4)GlcNAc(b1-3)Gal(b1-4)GlcNAc(b1-2)Man(a1-3)]Man(b1-4)GlcNAc(b1-4)GlcNAc
# Method in brief: (§1)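 Negative Z-scores can be read as non-binding. The Z-score is calculated within each array and then averaged across arrays of one protein sequence at different concentrations or buffers and across linkers. Arrays, 3228 in all, were curated from the Consortium for Functional Glycomics database and kept only where the protein sequence was available.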
# [2] = target: Gal(b1-4)GlcNAc(b1-3)Gal(b1-4)GlcNAc(b1-2)[Gal(b1-4)GlcNAc(b1-3)Gal(b1-4)GlcNAc(b1-6)]Man(a1-6)[Gal(b1-4)GlcNAc(b1-3)Gal(b1-4)GlcNAc(b1-2)Man(a1-3)]Man(b1-4)GlcNAc(b1-4)[Fuc(a1-6)]GlcNAc
# Method in brief: as §1
# [3] = target: Gal(b1-4)GlcNAc(b1-3)Gal(b1-4)GlcNAc(b1-3)Gal(b1-4)GlcNAc
# Method in brief: as §1
# [4] = target: Gal(b1-4)GlcNAc(b1-3)Gal(b1-4)GlcNAc(b1-3)Gal(b1-4)GlcNAc(b1-2)Man(a1-3)[Gal(b1-4)GlcNAc(b1-3)Gal(b1-4)GlcNAc(b1-3)Gal(b1-4)GlcNAc(b1-2)Man(a1-6)]Man(b1-4)GlcNAc(b1-4)GlcNAc
# Method in brief: as §1
# [5] = target: Gal(b1-4)GlcNAc(b1-3)Gal(b1-4)GlcNAc(b1-3)Gal(b1-4)GlcNAc(b1-2)Man(a1-3)[Gal(b1-4)GlcNAc(b1-3)Gal(b1-4)GlcNAc(b1-3)Gal(b1-4)GlcNAc(b1-2)Man(a1-6)]Man(b1-4)GlcNAc(b1-4)[Fuc(a1-6)]GlcNAc
# Method in brief: as §1
# [6] = target: Gal(b1-4)GlcNAc(b1-3)Gal(b1-4)GlcNAc(b1-3)Gal(b1-4)GlcNAc(b1-2)[Gal(b1-4)GlcNAc(b1-3)Gal(b1-4)GlcNAc(b1-3)Gal(b1-4)GlcNAc(b1-6)]Man(a1-6)[Gal(b1-4)GlcNAc(b1-3)Gal(b1-4)GlcNAc(b1-3)Gal(b1-4)GlcNAc(b1-2)Man(a1-3)]Man(b1-4)GlcNAc(b1-4)[Fuc(a1-6)]GlcNAc
# Method in brief: as §1
# [7] = target: Gal(b1-4)GlcNAc(b1-3)Gal(b1-4)GlcNAc(b1-3)Gal(b1-4)GlcNAc(b1-3)Gal(b1-4)GlcNAc(b1-2)Man(a1-3)[Gal(b1-4)GlcNAc(b1-3)Gal(b1-4)GlcNAc(b1-3)Gal(b1-4)GlcNAc(b1-3)Gal(b1-4)GlcNAc(b1-2)Man(a1-6)]Man(b1-4)GlcNAc(b1-4)GlcNAc
# Method in brief: as §1
# [8] = target: Gal(b1-4)GlcNAc(b1-3)Gal(b1-4)GlcNAc(b1-3)Gal(b1-4)GlcNAc(b1-3)Gal(b1-4)GlcNAc(b1-2)Man(a1-3)[Gal(b1-4)GlcNAc(b1-3)Gal(b1-4)GlcNAc(b1-3)Gal(b1-4)GlcNAc(b1-3)Gal(b1-4)GlcNAc(b1-2)Man(a1-6)]Man(b1-4)GlcNAc(b1-4)[Fuc(a1-6)]GlcNAc
# Method in brief: as §1
# [9] = target: Gal(b1-4)GlcNAc(b1-3)Gal(b1-4)GlcNAc(b1-3)Gal(b1-4)GlcNAc(b1-3)Gal(b1-4)GlcNAc(b1-2)[Gal(b1-4)GlcNAc(b1-3)Gal(b1-4)GlcNAc(b1-3)Gal(b1-4)GlcNAc(b1-3)Gal(b1-4)GlcNAc(b1-6)]Man(a1-6)[Gal(b1-4)GlcNAc(b1-3)Gal(b1-4)GlcNAc(b1-3)Gal(b1-4)GlcNAc(b1-3)Gal(b1-4)GlcNAc(b1-2)Man(a1-3)]Man(b1-4)GlcNAc(b1-4)[Fuc(a1-6)]GlcNAc
# Method in brief: as §1
# [10] = target: Gal(b1-4)GlcNAc(b1-3)Gal(b1-4)GlcNAc(b1-3)Gal(b1-4)GlcNAc(b1-3)Gal(b1-4)GlcNAc(b1-3)Gal(b1-4)GlcNAc(b1-2)Man(a1-3)[Gal(b1-4)GlcNAc(b1-3)Gal(b1-4)GlcNAc(b1-3)Gal(b1-4)GlcNAc(b1-3)Gal(b1-4)GlcNAc(b1-3)Gal(b1-4)GlcNAc(b1-2)Man(a1-6)]Man(b1-4)GlcNAc(b1-4)GlcNAc
# Method in brief: as §1
# [11] = target: Gal(b1-4)GlcNAc(b1-3)Gal(b1-4)GlcNAc(b1-3)Gal(b1-4)GlcNAc(b1-3)Gal(b1-4)GlcNAc(b1-3)Gal(b1-4)GlcNAc(b1-2)Man(a1-3)[Gal(b1-4)GlcNAc(b1-3)Gal(b1-4)GlcNAc(b1-3)Gal(b1-4)GlcNAc(b1-3)Gal(b1-4)GlcNAc(b1-3)Gal(b1-4)GlcNAc(b1-2)Man(a1-6)]Man(b1-4)GlcNAc(b1-4)[Fuc(a1-6)]GlcNAc
# Method in brief: as §1
# [12] = target: Gal(b1-4)GlcNAc(b1-3)Gal(b1-4)GlcNAc(b1-3)Gal(b1-4)GlcNAc(b1-3)Gal(b1-4)GlcNAc(b1-3)Gal(b1-4)GlcNAc(b1-2)[Gal(b1-4)GlcNAc(b1-3)Gal(b1-4)GlcNAc(b1-3)Gal(b1-4)GlcNAc(b1-3)Gal(b1-4)GlcNAc(b1-3)Gal(b1-4)GlcNAc(b1-6)]Man(a1-6)[Gal(b1-4)GlcNAc(b1-3)Gal(b1-4)GlcNAc(b1-3)Gal(b1-4)GlcNAc(b1-3)Gal(b1-4)GlcNAc(b1-3)Gal(b1-4)GlcNAc(b1-2)Man(a1-3)]Man(b1-4)GlcNAc(b1-4)[Fuc(a1-6)]GlcNAc
# Method in brief: as §1
# [13] = target: Gal(b1-4)GlcNAc(b1-3)Gal(b1-4)GlcNAc(b1-3)Gal(b1-4)GlcNAc(b1-3)Gal(b1-4)GlcNAc(b1-3)Gal(b1-4)GlcNAc(b1-3)Gal(b1-4)GlcNAc(b1-2)Man(a1-3)[Gal(b1-4)GlcNAc(b1-3)Gal(b1-4)GlcNAc(b1-3)Gal(b1-4)GlcNAc(b1-3)Gal(b1-4)GlcNAc(b1-3)Gal(b1-4)GlcNAc(b1-3)Gal(b1-4)GlcNAc(b1-2)Man(a1-6)]Man(b1-4)GlcNAc(b1-4)GlcNAc
# Method in brief: as §1
# [14] = target: Gal(b1-4)GlcNAc(b1-3)Gal(b1-4)GlcNAc(b1-3)GalNAc
# Method in brief: as §1
# [15] = target: Gal(b1-4)GlcNAc(b1-3)Gal(b1-4)GlcNAc(b1-3)[Gal(b1-4)GlcNAc(b1-3)Gal(b1-4)GlcNAc(b1-6)]GalNAc
# Method in brief: as §1
# [16] = target: Gal(b1-4)GlcNAc(b1-3)Gal(b1-4)GlcNAc(b1-6)[Gal(b1-3)]GalNAc
# Method in brief: as §1
# [17] = target: Gal(b1-4)GlcNAc(b1-3)Gal(b1-4)[Fuc(a1-3)]GlcNAc(b1-3)Gal(b1-4)[Fuc(a1-3)]GlcNAc
# Method in brief: as §1
# [18] = target: Gal(b1-4)GlcNAc(b1-3)GalNAc
# Method in brief: as §1
# [19] = target: Gal(b1-4)GlcNAc(b1-3)[Fuc(a1-3)GlcNAc(b1-6)]Gal(b1-4)Glc
# Method in brief: as §1
# [20] = target: Gal(b1-4)GlcNAc(b1-3)[Gal(b1-4)GlcNAc(b1-6)]Gal(b1-4)GlcNAc
# Method in brief: as §1
# [21] = target: Gal(b1-4)GlcNAc(b1-3)[GlcNAc(b1-6)]Gal(b1-4)GlcNAc
# Method in brief: as §1
# [22] = target: Gal(b1-4)GlcNAc(b1-6)Gal(b1-4)GlcNAc
# Method in brief: as §1
# [23] = target: Gal(b1-4)GlcNAc(b1-6)GalNAc
# Method in brief: as §1
# [24] = target: Gal(b1-4)GlcNAc(b1-6)[Gal(b1-3)]GalNAc
# Method in brief: as §1
# [25] = target: Gal(b1-4)GlcNAc(b1-6)[Gal(b1-4)GlcNAc(b1-3)]GalNAc
# Method in brief: as §1
# Gal(b1-4)GlcNAc6P = target: Gal(b1-4)GlcNAc6P
# Method in brief: as §1
# Gal(b1-6)Gal = target: Gal(b1-6)Gal
# Method in brief: as §1
# Gal3S(b1-3)GalNAc = target: Gal3S(b1-3)GalNAc
# Method in brief: as §1
# Gal3S(b1-3)GlcNAc = target: Gal3S(b1-3)GlcNAc
# Method in brief: as §1
# [26] = target: Gal3S(b1-3)[Fuc(a1-4)]GlcNAc
# Method in brief: as §1
# Gal3S(b1-4)Glc = target: Gal3S(b1-4)Glc
# Method in brief: as §1
# Gal3S(b1-4)Glc6S = target: Gal3S(b1-4)Glc6S
# Method in brief: as §1
# Gal3S(b1-4)GlcNAc = target: Gal3S(b1-4)GlcNAc
# Method in brief: as §1
# [27] = target: Gal3S(b1-4)[Fuc(a1-3)]Glc6S
# Method in brief: as §1
# [28] = target: Gal3S(b1-4)[Fuc(a1-3)]GlcNAc
# Method in brief: as §1
# [29] = target: Gal3S(b1-4)[Fuc(a1-3)]GlcNAc6S
# Method in brief: as §1
# Gal3S4S(b1-4)GlcNAc = target: Gal3S4S(b1-4)GlcNAc
# Method in brief: as §1
# Gal3S6S(b1-4)GlcNAc = target: Gal3S6S(b1-4)GlcNAc
# Method in brief: as §1
# Gal3S6S(b1-4)GlcNAc6S = target: Gal3S6S(b1-4)GlcNAc6S
# Method in brief: as §1
# Gal4S(b1-4)GlcNAc = target: Gal4S(b1-4)GlcNAc
# Method in brief: as §1
# Gal4S6S(b1-4)GlcNAc = target: Gal4S6S(b1-4)GlcNAc
# Method in brief: as §1
# Gal6P(b1-4)GlcNAc = target: Gal6P(b1-4)GlcNAc
# Method in brief: as §1
# Gal6S(b1-3)GlcNAc = target: Gal6S(b1-3)GlcNAc
# Method in brief: as §1
# Gal6S(b1-3)GlcNAc6S = target: Gal6S(b1-3)GlcNAc6S
# Method in brief: as §1
# Gal6S(b1-4)Glc = target: Gal6S(b1-4)Glc
# Method in brief: as §1
binder,measurement,setting,value
B1,glycan array binding signal (z-score),[1],-0.769
same,glycan array binding signal (z-score),[2],1.31
same,glycan array binding signal (z-score),[3],-0.415
same,glycan array binding signal (z-score),[4],0.392
same,glycan array binding signal (z-score),[5],1.45
same,glycan array binding signal (z-score),[6],0.279
same,glycan array binding signal (z-score),[7],0.503
same,glycan array binding signal (z-score),[8],-0.059
same,glycan array binding signal (z-score),[9],0.077
same,glycan array binding signal (z-score),[10],3.23
same,glycan array binding signal (z-score),[11],1.33
same,glycan array binding signal (z-score),[12],1.21
same,glycan array binding signal (z-score),[13],0.041
same,glycan array binding signal (z-score),[14],0.082
same,glycan array binding signal (z-score),[15],0.86
same,glycan array binding signal (z-score),[16],-0.045
same,glycan array binding signal (z-score),[17],0.753
same,glycan array binding signal (z-score),[18],-1.06
same,glycan array binding signal (z-score),[19],-0.005
same,glycan array binding signal (z-score),[20],-0.437
same,glycan array binding signal (z-score),[21],0.081
same,glycan array binding signal (z-score),[22],-0.409
same,glycan array binding signal (z-score),[23],1.64
same,glycan array binding signal (z-score),[24],-0.606
same,glycan array binding signal (z-score),[25],0.65
same,glycan array binding signal (z-score),Gal(b1-4)GlcNAc6P,-1.08
same,glycan array binding signal (z-score),Gal(b1-6)Gal,-0.244
same,glycan array binding signal (z-score),Gal3S(b1-3)GalNAc,-0.437
same,glycan array binding signal (z-score),Gal3S(b1-3)GlcNAc,1.07
same,glycan array binding signal (z-score),[26],-0.119
same,glycan array binding signal (z-score),Gal3S(b1-4)Glc,-0.06
same,glycan array binding signal (z-score),Gal3S(b1-4)Glc6S,-0.577
same,glycan array binding signal (z-score),Gal3S(b1-4)GlcNAc,0.14
same,glycan array binding signal (z-score),[27],1.88
same,glycan array binding signal (z-score),[28],-0.163
same,glycan array binding signal (z-score),[29],0.007
same,glycan array binding signal (z-score),Gal3S4S(b1-4)GlcNAc,0.361
same,glycan array binding signal (z-score),Gal3S6S(b1-4)GlcNAc,-0.807
same,glycan array binding signal (z-score),Gal3S6S(b1-4)GlcNAc6S,0.556
same,glycan array binding signal (z-score),Gal4S(b1-4)GlcNAc,0.397
same,glycan array binding signal (z-score),Gal4S6S(b1-4)GlcNAc,-0.116
same,glycan array binding signal (z-score),Gal6P(b1-4)GlcNAc,-0.638
same,glycan array binding signal (z-score),Gal6S(b1-3)GlcNAc,-0.179
same,glycan array binding signal (z-score),Gal6S(b1-3)GlcNAc6S,0.574
same,glycan array binding signal (z-score),Gal6S(b1-4)Glc,-0.443

# Reformatted: results already given
binder	measurement	setting	value
B1	glycan array binding signal (z-score)	[17]	0.753
same	glycan array binding signal (z-score)	[18]	-1.06

# Reference: the supplement of paper PMC8728848
